Source: PubChem BioAssay AID1259254 (NCATS, 2017)

- Aim: 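Genome-wide screen for genes that prevent DNA re-replication in cancer cells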 (primary screen)
- Cells: human HCT116 colorectal cancer cells
- Knock-down reagent: single siRNA against human genes
- Duration: 3 days
- Measurement: 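Nuclei stained with Hoechst and imaged; cell-cycle phase assigned by DNA content; G2 share scaled per plate, non-targeting siRNA 0%, GMNN siRNA 100%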
- Scale: G2 robust z-score and G2 cells, % of GMNN control: higher = more G2 cells, more excess DNA replication
- Active means: 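Active siRNAs have a G2 robust z of 5 or more median absolute deviations over the median, which in these data means about 38% or higher of GMNN control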
Here is one part, drawn at random, of about 59,000 deposited reagents. Over the whole deposit, about 1,550 (2.6%) are marked active. 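G2 share is only a proxy for re-replication; each gene was hit by three separate siRNAs, and active genes were retested.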 The numbers tell different reagents against one gene apart. Not all columns of the deposit are shown. Not given: the amount of reagent.

DPP9 #1: G2 robust z-score = -0.282; G2 cells, % of GMNN control = 0.985; activity call = inactive
DPP9 #2: G2 robust z-score = 7.13; G2 cells, % of GMNN control = 53.2; activity call = active
DPP9 #3: G2 robust z-score = 0.457; G2 cells, % of GMNN control = 6.18; activity call = inactive
DNAJC11 #1: G2 robust z-score = -0.18; G2 cells, % of GMNN control = 1.7; activity call = inactive
DNAJC11 #2: G2 robust z-score = -0.128; G2 cells, % of GMNN control = 2.06; activity call = inactive
DNAJC11 #3: G2 robust z-score = 1.34; G2 cells, % of GMNN control = 12.4; activity call = inactive
GPC3 #1: G2 robust z-score = 2.53; G2 cells, % of GMNN control = 20.8; activity call = inactive
GPC3 #2: G2 robust z-score = 0.99; G2 cells, % of GMNN control = 9.93; activity call = inactive
GPC3 #3: G2 robust z-score = 0.494; G2 cells, % of GMNN control = 6.44; activity call = inactive
FGGY #1: G2 robust z-score = -0.573; G2 cells, % of GMNN control = -1.06; activity call = inactive
FGGY #2: G2 robust z-score = -0.39; G2 cells, % of GMNN control = 0.225; activity call = inactive
FGGY #3: G2 robust z-score = 2.08; G2 cells, % of GMNN control = 17.6; activity call = inactive
EXOC5 #1: G2 robust z-score = 1.69; G2 cells, % of GMNN control = 14.9; activity call = inactive
EXOC5 #2: G2 robust z-score = 0.719; G2 cells, % of GMNN control = 8.02; activity call = inactive
EXOC5 #3: G2 robust z-score = 2.6; G2 cells, % of GMNN control = 21.2; activity call = inactive
HMGXB4 #1: G2 robust z-score = 1.01; G2 cells, % of GMNN control = 10.1; activity call = inactive
HMGXB4 #2: G2 robust z-score = 1.74; G2 cells, % of GMNN control = 15.2; activity call = inactive
HMGXB4 #3: G2 robust z-score = 2.17; G2 cells, % of GMNN control = 18.2; activity call = inactive
PAM16 #1: G2 robust z-score = -0.464; G2 cells, % of GMNN control = -0.3; activity call = inactive
PAM16 #2: G2 robust z-score = -0.54; G2 cells, % of GMNN control = -0.832; activity call = inactive
PAM16 #3: G2 robust z-score = 0.524; G2 cells, % of GMNN control = 6.65; activity call = inactive
EOLA2 #1: G2 robust z-score = -0.744; G2 cells, % of GMNN control = -2.27; activity call = inactive
EOLA2 #2: G2 robust z-score = 1.4; G2 cells, % of GMNN control = 12.8; activity call = inactive
EOLA2 #3: G2 robust z-score = 0.631; G2 cells, % of GMNN control = 7.41; activity call = inactive
LNCRI #1: G2 robust z-score = -1.19; G2 cells, % of GMNN control = -5.38; activity call = inactive
LNCRI #2: G2 robust z-score = 0.39; G2 cells, % of GMNN control = 5.71; activity call = inactive
LNCRI #3: G2 robust z-score = -0.449; G2 cells, % of GMNN control = -0.19; activity call = inactive
FAM217A #1: G2 robust z-score = 0.401; G2 cells, % of GMNN control = 5.79; activity call = inactive
FAM217A #2: G2 robust z-score = 0.51; G2 cells, % of GMNN control = 6.55; activity call = inactive
FAM217A #3: G2 robust z-score = 1.67; G2 cells, % of GMNN control = 14.7; activity call = inactive

2 entries from above, limited to “G2 cells, % of GMNN control”:
EXOC5 #3 = 21.2
HMGXB4 #1 = 10.1
